The source of these data is paper doi:10.1101/2020.01.07.896506 (bioRxiv, 2020).

Sequences of proteins named here, by UniProt entry; tags and fusion partners are left off.
UniProt Q39024: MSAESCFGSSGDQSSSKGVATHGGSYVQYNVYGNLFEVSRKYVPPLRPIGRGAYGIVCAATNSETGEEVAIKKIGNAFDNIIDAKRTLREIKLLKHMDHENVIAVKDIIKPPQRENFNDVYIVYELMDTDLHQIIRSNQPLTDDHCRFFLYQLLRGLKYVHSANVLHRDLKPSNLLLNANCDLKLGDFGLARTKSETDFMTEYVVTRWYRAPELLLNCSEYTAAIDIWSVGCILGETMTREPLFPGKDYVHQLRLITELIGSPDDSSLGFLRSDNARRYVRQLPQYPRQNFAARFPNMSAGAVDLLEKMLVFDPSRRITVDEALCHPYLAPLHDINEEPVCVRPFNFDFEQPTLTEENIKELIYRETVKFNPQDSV

No constants are given. Whether binding was seen depends on the method and setting. Binding seen in cells or lysates may run through a third protein. These calls come from enrichment with a bait or labelling near it, and not all partners need be listed. Sequences can lack the tags named with a protein.

The chains are these.
B1: BolA2 (protein, UniProt Q9FIC3 1-93)
chain: MVTKEQVEASLTSKLKPIHLEVIDISGGCGSSFEVEVVSEQFEGKRLLERHRMVNAALEEEMKEIHALSIKKAQTPQQWKPPSQDSATLTKDA
B2: MKK2 (protein, UniProt Q9S7U9 1-363)
chain: MKKGGFSNNLKLAIPVAGEQSITKFLTQSGTFKDGDLRVNKDGVRIISQLEPEVLSPIKPADDQLSLSDLDMVKVIGKGSSGVVQLVQHKWTGQFFALKVIQLNIDEAIRKAIAQELKINQSSQCPNLVTSYQSFYDNGAISLILEYMDGGSLADFLKSVKAIPDSYLSAIFRQVLQGLIYLHHDRHIIHRDLKPSNLLINHRGEVKITDFGVSTVMTNTAGLANTFVGTYNYMSPERIVGNKYGNKSDIWSLGLVVLECATGKFPYAPPNQEETWTSVFELMEAIVDQPPPALPSGNFSPELSSFISTCLQKDPNSRSSAKELMEHPFLNKYDYSGINLASYFTDAGSPLATLGNLSGTFSV

The first assay has as its target T1, GRXS17:FLAG-HA (Arabidopsis thaliana) (UniProt Q9ZPH2).
T1 sequence: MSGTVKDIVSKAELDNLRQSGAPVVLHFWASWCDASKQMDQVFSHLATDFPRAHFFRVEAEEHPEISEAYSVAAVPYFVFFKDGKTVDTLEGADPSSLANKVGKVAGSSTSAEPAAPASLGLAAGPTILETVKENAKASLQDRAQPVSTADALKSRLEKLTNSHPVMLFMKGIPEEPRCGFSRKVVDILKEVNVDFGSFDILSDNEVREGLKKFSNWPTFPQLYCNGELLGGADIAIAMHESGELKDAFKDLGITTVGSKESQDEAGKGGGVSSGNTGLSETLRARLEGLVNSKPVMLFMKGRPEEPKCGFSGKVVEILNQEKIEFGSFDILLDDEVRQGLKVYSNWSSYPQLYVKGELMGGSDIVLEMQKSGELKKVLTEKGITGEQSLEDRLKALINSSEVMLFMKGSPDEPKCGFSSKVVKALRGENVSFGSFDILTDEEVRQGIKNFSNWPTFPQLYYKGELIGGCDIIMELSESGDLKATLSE
As to the kind of experiment: affinity purification with mass spectrometry.
Regarding monodehydroascorbate reductase (MDAR), the binding entry is reported as “binds”.
For the molecule protein disulfide isomerase (PDIL), the binding result was “binds”.
The same measure, in the same setting: for MPK4 (from UniProt Q39024 1-376) the value was “binds”.
On to B1, for which the binding entry is recorded as “binds”.
The same measure, in the same setting: to B2 belongs “binds”.

The next assay deals with T1, GRXS17:FLAG-HA (Arabidopsis thaliana). Kind of assay: affinity purification with mass spectrometry. This is another data set of the same source.
Consider B1, for which the binding result is given as “binds”.
